Results are given in words; binding and its absence hold for the method and conditions named. Binding seen in cells or lysates may run through a third protein. Some results given as binding are weak or reduced against the parent protein; the word gives no strength.
How the values were obtained:
HA-tagged FASN = HA-tagged FASN (UniProt P49327); assay: co-IP; 293T cells transfected with HA-FASN, FLAG-USP2 and MYC-VCP plasmids or their deletion and truncation mutants; lysates immunoprecipitated with tag antibodies (anti-MYC, anti-FLAG, anti-HA), western blot
[1] = molecular target: FASN in 293T cells (Figure 3D and 3H; tag not told) (UniProt P49327); assay: co-IP; 293T cells (Fig. 3D); constructs and antibodies not told
[2] = molecular target: Fatty acid synthase (FASN), endogenous in osteosarcoma cells (human (endogenous in 143B and U2OS)) (UniProt P49327); assay: co-IP; endogenous proteins; 143B and U2OS lysates immunoprecipitated with FASN, VCP and USP2 antibodies, western blot; also after EBSS for 0, 2, 4 and 6 h (FASN-VCP interaction increased)

Sequences of proteins named here, by UniProt entry; tags and fusion partners are left off.
UniProt P49327: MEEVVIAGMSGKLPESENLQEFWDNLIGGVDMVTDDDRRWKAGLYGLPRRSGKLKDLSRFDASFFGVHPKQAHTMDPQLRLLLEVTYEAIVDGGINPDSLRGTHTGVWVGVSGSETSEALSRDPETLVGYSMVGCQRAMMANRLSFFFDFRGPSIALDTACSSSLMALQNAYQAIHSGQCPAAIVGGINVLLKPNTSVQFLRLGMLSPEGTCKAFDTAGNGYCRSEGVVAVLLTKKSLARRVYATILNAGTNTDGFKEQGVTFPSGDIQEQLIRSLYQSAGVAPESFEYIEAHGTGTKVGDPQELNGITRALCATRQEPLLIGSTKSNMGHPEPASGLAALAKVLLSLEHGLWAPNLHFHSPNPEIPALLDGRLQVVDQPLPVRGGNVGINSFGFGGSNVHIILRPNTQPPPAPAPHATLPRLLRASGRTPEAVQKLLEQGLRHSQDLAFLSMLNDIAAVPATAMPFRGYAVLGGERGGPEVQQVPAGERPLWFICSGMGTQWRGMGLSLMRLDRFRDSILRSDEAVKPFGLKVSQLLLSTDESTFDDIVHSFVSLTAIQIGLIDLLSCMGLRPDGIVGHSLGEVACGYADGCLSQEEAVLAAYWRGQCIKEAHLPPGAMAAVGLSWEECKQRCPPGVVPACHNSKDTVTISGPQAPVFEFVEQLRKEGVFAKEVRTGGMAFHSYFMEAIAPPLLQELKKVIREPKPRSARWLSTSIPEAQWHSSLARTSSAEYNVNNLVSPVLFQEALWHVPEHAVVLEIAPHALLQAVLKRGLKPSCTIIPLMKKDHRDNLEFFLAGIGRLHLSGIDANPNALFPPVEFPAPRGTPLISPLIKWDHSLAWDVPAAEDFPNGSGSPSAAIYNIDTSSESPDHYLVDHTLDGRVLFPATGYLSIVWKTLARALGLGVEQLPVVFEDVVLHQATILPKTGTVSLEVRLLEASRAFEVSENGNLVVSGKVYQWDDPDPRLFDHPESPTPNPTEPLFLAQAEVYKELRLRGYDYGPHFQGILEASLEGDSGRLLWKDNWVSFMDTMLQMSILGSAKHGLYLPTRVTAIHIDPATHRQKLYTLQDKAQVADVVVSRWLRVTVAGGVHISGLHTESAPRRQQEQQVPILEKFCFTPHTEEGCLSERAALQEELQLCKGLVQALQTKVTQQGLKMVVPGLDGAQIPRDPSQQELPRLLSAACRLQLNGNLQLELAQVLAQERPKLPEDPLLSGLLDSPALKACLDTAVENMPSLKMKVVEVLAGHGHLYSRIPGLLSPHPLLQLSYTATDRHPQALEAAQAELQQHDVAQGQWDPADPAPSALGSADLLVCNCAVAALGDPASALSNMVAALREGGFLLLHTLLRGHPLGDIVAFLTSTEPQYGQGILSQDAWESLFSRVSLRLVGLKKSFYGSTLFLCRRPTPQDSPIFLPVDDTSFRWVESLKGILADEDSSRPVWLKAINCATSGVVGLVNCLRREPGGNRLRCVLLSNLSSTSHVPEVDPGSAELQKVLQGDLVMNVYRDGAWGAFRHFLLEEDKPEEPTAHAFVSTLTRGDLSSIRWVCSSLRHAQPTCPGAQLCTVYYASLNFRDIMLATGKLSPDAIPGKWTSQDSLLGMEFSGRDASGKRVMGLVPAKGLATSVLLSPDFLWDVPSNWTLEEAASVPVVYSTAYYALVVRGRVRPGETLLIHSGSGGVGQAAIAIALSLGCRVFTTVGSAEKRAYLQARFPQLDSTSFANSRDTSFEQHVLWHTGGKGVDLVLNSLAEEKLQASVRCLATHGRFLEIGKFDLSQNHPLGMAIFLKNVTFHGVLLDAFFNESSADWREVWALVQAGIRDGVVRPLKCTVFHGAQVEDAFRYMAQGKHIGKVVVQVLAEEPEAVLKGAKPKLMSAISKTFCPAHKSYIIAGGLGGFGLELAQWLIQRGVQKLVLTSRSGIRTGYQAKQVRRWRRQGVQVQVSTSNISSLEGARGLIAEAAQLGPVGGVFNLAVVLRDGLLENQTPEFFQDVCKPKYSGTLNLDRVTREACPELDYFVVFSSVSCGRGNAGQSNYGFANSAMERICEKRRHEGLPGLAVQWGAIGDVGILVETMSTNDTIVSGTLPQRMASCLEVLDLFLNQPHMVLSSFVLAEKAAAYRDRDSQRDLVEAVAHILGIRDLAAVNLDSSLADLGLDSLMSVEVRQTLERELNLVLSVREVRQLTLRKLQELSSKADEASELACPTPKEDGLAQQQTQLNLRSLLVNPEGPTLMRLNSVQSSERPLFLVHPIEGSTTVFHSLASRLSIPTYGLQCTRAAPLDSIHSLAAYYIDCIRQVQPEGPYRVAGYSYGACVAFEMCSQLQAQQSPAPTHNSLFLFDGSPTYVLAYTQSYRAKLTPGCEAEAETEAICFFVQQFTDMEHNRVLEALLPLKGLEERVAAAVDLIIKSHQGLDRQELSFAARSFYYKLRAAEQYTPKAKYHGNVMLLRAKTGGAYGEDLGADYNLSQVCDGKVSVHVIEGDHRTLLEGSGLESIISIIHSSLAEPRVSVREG

Question: How did the binding (HA-tagged FASN) turn out when “MYC-labeled full-length VCP (from UniProt P55072 1-806)” was run?
Answer: binds

Question: With “VCP in 293T cells (Figure 3D; tag not told) (from UniProt P55072 1-806)” as the substance, how does the binding [1] read?
Answer: binds

Question: “Valosin-containing protein (VCP), endogenous in osteosarcoma cells (from UniProt P55072 1-806)” was tested. Which binding [2] did it give?
Answer: binds
